# Values joined by “and” are separate entries in the source; they are usually repeats but may differ in a detail not shown here. Equal values may be shown once. Screen size: about 78,000 compounds; about 1,800 (2.3%) were called active. Inconclusive means that the source gave no clear call. Such entries were picked first, then a sample of the others. Cut-off read from the data, not from the text of the source: active = inhibition above about 30%; inconclusive = mostly about 10% to 28%; inactive = weaker than that.
# Protein sequences, listed by entry. Tags and fused reporters are not part of them. Lines headed by an entry give the natural chain unless they say otherwise; changes in a name come on top.
# UniProt Q01638: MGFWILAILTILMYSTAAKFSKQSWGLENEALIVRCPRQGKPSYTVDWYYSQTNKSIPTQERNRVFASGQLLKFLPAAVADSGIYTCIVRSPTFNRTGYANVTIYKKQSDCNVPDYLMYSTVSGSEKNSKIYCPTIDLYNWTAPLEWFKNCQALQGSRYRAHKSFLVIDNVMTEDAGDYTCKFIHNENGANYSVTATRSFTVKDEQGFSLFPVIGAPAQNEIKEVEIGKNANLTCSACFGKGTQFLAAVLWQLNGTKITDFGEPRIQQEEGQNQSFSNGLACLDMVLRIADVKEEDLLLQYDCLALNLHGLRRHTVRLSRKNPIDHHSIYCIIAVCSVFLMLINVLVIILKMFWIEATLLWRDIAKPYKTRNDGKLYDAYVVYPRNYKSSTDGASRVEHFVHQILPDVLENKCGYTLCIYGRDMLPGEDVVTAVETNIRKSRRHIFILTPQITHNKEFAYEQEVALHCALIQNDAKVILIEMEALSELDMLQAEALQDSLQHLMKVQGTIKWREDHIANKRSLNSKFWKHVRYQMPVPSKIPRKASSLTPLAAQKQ
# Target: Interleukin-1 receptor-like 1 (Homo sapiens) (UniProt Q01638)
# Experiment: blocks human ST2 binding to IL-33, primary screen, biochemical, AlphaLISA (AID 1259354)
# Conditions: AlphaLISA ST2-Fc/biotin-IL-33 interaction, 1 h; at 17 µM, active compounds read high
row,SMILES,inhibition
1,Cc1nn(CCCC(=O)Nc2ccc(Cl)c(Cl)c2)c(C)c1[N+](=O)[O-],inconclusive: 16% and inconclusive: 15%
2,CSc1nnc2c(n1)OC(c1ccco1)Nc1ccc(Br)cc1-2 (stereo not given),inactive
3,O=C(CCC1CCN(C(=O)Cn2nc3ccccc3n2)CC1)NCC1CCCO1 (stereo not given),inactive
4,CC(C)SCC(=O)N1CCC2(CC1)CN(C)CCN2C,inconclusive: 10%
5,CN1C[C@H](C(=O)N[C@]2(C)O[C@@]3(O)[C@@H]4CCCN4C(=O)[C@H](Cc4ccccc4)N3C2=O)C[C@@H]2c3cccc4[nH]cc(c34)C[C@H]21,inconclusive: 10%
6,Cc1nn(CCO)c(C)c1[C@@H]1C=C[C@@H](NCc2ccc(N(C)C)cc2)C1,inconclusive: 10%
7,O=C1CC(NCc2ccncc2)C(=O)N1c1ccc(Cl)cc1 (stereo not given),inconclusive: 15%
8,COc1ccc(OC)c(-c2ncnn2-c2cccc(Cl)c2C)c1,inconclusive: 26% and inconclusive: 18%
9,Cc1ccc(-c2cc(N3CCN(S(=O)(=O)c4ccccc4)CC3)ncn2)cc1,inconclusive: 10%
10,Cc1cc(C)c2c(c1)C1C=CCC1C(C(=O)O)N2 (stereo not given),inconclusive: 23%
11,Cc1ccc(-n2c(=O)c3sccc3n(CC(=O)Nc3cccc(Cl)c3)c2=O)cc1F,inactive
12,CSc1nc(N)nc(SCC(=O)Nc2ccc([N+](=O)[O-])cc2)c1C#N,inconclusive: 23%
13,O=C(Nc1ccccc1)O[C@@H]1CO[C@H]2[C@@H]1OC[C@@H]2NC(=O)C1CCC1,inconclusive: 23%
14,CC(C)NC(=O)c1cn(C)c(=O)c2c1c1ccccc1n2C,inactive
15,Cc1ccccc1CN1C(=O)c2ccccc2Sc2ccc(C(=O)O)cc21,inconclusive: 10%
16,Cc1cccc(OCC(=O)Nc2cc(N3CCCS3(=O)=O)ccc2C)c1,inactive
17,CC(C)N1CCC(CNC(=O)c2cc(-c3ccsc3)n[nH]2)C1 (stereo not given),inconclusive: 12%
18,COc1ccc(NC(=O)c2cccnc2)cc1Cl,inactive
19,O=C(Cn1c(=O)oc2ccccc21)N1CCCCC1CCn1cccn1 (stereo not given),inactive
20,O=C(Nc1ccc(F)c(Cl)c1)c1cnc(N2CCN(c3ccccn3)CC2)c2ccccc12,inactive

row,SMILES,inhibition
1,Cc1ccc(-c2nc(-c3ccc([N+](=O)[O-])cc3)no2)cc1Cl,inconclusive: 16%
2,Cc1ccc(C2C(=C(O)c3ccccc3)C(=O)C(=O)N2CCc2ccccc2)cc1 (stereo not given),inconclusive: 12%
3,NC(=O)CN1CCC=C(CNC(=O)COc2ccccc2)C1,inactive
4,O=C1C(Cc2ccccc2)N=C2c3ccccc3N=C(SCc3cc(=O)n4ccccc4n3)N12 (stereo not given),inconclusive: 10%
5,COc1ccccc1Nc1nc2nonc2nc1Nc1ccc(Cl)cc1,inconclusive: 12%
6,CCc1nc(C)c(C(=O)NCCN2N=C(c3ccccc3)CCC2=O)o1,inconclusive: 11%
7,CNC(=O)C1CCC(Cn2c(=O)c3sccc3n(CC(=O)Nc3ccccc3C)c2=O)CC1 (stereo not given),inactive
8,Cc1cc(C)c(S(=O)(=O)N=C2C=CC(=O)C=C2)cc1C,inconclusive: 29%
9,CCCC(=O)Nc1cccc(C(=O)N(C)CC(C)N2CCOCC2)c1 (stereo not given),inconclusive: 14%
10,CC1(c2ccc(Cl)cc2)CC(C)(C)N(C(=O)c2cccnc2)c2ccccc21 (stereo not given),inconclusive: 11%
11,CCCC12CN3CC(C)(CN(C1)C3c1ccc(C)cc1)C2=O (stereo not given),inconclusive: 20%
12,FC(F)(F)C(OCc1nc(CCc2ccccc2)n[nH]1)c1ccccc1 (stereo not given),inconclusive: 14%
13,O=C(c1ccco1)n1nnc2ccccc21,inactive
14,Cc1ccc(N=Cc2nc(-c3ccc(Cl)cc3)oc2O)c(C)c1,inconclusive: 24%
15,Cc1nc(C(C)C)ncc1C(=O)N1CCn2nc(C(=O)NC3CC3)cc2C1,inactive
16,Cc1ccc(C(=O)N2CCCC(Cn3cc(-c4ccccn4)nn3)C2)cc1C (stereo not given),inconclusive: 22%
17,COC(=O)c1ccccc1C(=O)N1CC[C@@H](c2ccc(F)cc2)[C@H](O)C1,inconclusive: 14%
18,Cc1ccccc1-c1nnn(CC(=O)Nc2ccc(F)cc2)n1,inactive
19,Cc1cc(Cl)c(OCCCCN2CCOCC2)c(Br)c1,inconclusive: 23%
20,COc1ccc(OC)c(CNc2ccc3c(c2)nc(C)n3C)c1,inconclusive: 13%

row,SMILES,inhibition
1,CCC(C)NC(=O)c1ccc(Cn2c(=O)c3cc(OC)c(OC)cc3n(CC(=O)NC(C)C)c2=O)cc1 (stereo not given),inactive
2,COc1ccccc1C(=O)Nc1ccc(Cl)c(N2CCCS2(=O)=O)c1,inactive
3,COc1ccccc1CCN1CCC(CN(C)C(=O)/C=C/c2cccnc2)CC1,inactive
4,CCOc1ccc(CN2C(=O)c3oc4ccccc4c3OCC2(C)C(=O)NC2CCCC2)cc1 (stereo not given),inactive
5,N#Cc1c(SCC(=O)Nc2ccccc2)ncc2cc3ccccc3nc12,active: 32%
6,CCC(CO)N(Cc1ccco1)C(=O)c1cc2ccccn2n1 (stereo not given),inconclusive: 17%
7,Cc1ccc(C)c(OCC(=O)NCc2ccco2)c1,inconclusive: 11%
8,Cc1ccc(C(=O)N2N=C(c3ccc(Br)cc3)CC2c2ccco2)cc1 (stereo not given),inconclusive: 13%
9,CC(=O)N1N=C(c2ccccc2)CC1Cc1cc2cccc(C)c2nc1Cl (stereo not given),inconclusive: 28%
10,Cc1nn(-c2ccccc2)c2sc(C(=O)Nc3ccccc3Cl)cc12,inactive
11,c1ccc(-c2ncn(CCc3cnc[nH]3)c2-c2ncc[nH]2)cc1,inconclusive: 22%
12,COc1ccc(CCn2ccnc2-c2coc(C)n2)cc1OC,inconclusive: 14%
13,COc1cccc(-c2cnn3cccnc23)c1F,inconclusive: 24%
14,Cc1ccccc1CSC1=NN2CCCC(=O)N=C2S1,inconclusive: 14%
15,CCCCOC(=O)C1=C(C)Nc2ncnn2C1c1cccc(Br)c1 (stereo not given),inactive
16,Cc1c(NC(=O)C2CCCO2)c(=O)n(-c2ccccc2)n1C (stereo not given),inconclusive: 10%
17,CO[C@H]1COC[C@@H]1NC(=O)c1coc(COc2ccc3sc(C)nc3c2)n1,inactive
18,COc1ccc(/C=C2/SC(=O)NC2=O)c(OC)c1,inconclusive: 11%
19,CC1CC(=O)C2=C(C1)OC(N)=C(C#N)C2c1cccs1 (stereo not given),inactive
20,O=C(NC1CCOCC1)C1CCCN(C2CCN(Cc3ccccc3)CC2)C1 (stereo not given),inconclusive: 13%

# Five of these compounds, set out differently:
row	SMILES	inhibition
5	N#Cc1c(SCC(=O)Nc2ccccc2)ncc2cc3ccccc3nc12	active: 32%
6	CCC(CO)N(Cc1ccco1)C(=O)c1cc2ccccn2n1 (stereo not given)	inconclusive: 17%
7	Cc1ccc(C)c(OCC(=O)NCc2ccco2)c1	inconclusive: 11%
8	Cc1ccc(C(=O)N2N=C(c3ccc(Br)cc3)CC2c2ccco2)cc1 (stereo not given)	inconclusive: 13%
9	CC(=O)N1N=C(c2ccccc2)CC1Cc1cc2cccc(C)c2nc1Cl (stereo not given)	inconclusive: 28%

# Reference: PubChem BioAssay AID1259354 (Paczesny and Yang Labs, IUPUI and University of Michigan, 2018)
